These are yes or no findings as the source states them, for the method shown. Binding seen in cells or lysates may run through a third protein. Some results given as binding are weak or reduced against the parent protein; the word gives no strength.
Target: VEGFR2 (human (endogenous in HUVEC)) (UniProt P35968)
Experiment: co-IP; endogenous proteins in RIPA lysate of HUVEC (methods: HUVEC-C) after 200 μM CoCl2 treatment; precleared lysate incubated with HIF-1α and VEGFR2 antibodies 1 h at 4°C, Protein A/G agarose beads overnight at 4°C; western blotting

Sequences of proteins named here, by UniProt entry; tags and fusion partners are left off. Residues count along the entry.
UniProt P35968, residues 20-1356: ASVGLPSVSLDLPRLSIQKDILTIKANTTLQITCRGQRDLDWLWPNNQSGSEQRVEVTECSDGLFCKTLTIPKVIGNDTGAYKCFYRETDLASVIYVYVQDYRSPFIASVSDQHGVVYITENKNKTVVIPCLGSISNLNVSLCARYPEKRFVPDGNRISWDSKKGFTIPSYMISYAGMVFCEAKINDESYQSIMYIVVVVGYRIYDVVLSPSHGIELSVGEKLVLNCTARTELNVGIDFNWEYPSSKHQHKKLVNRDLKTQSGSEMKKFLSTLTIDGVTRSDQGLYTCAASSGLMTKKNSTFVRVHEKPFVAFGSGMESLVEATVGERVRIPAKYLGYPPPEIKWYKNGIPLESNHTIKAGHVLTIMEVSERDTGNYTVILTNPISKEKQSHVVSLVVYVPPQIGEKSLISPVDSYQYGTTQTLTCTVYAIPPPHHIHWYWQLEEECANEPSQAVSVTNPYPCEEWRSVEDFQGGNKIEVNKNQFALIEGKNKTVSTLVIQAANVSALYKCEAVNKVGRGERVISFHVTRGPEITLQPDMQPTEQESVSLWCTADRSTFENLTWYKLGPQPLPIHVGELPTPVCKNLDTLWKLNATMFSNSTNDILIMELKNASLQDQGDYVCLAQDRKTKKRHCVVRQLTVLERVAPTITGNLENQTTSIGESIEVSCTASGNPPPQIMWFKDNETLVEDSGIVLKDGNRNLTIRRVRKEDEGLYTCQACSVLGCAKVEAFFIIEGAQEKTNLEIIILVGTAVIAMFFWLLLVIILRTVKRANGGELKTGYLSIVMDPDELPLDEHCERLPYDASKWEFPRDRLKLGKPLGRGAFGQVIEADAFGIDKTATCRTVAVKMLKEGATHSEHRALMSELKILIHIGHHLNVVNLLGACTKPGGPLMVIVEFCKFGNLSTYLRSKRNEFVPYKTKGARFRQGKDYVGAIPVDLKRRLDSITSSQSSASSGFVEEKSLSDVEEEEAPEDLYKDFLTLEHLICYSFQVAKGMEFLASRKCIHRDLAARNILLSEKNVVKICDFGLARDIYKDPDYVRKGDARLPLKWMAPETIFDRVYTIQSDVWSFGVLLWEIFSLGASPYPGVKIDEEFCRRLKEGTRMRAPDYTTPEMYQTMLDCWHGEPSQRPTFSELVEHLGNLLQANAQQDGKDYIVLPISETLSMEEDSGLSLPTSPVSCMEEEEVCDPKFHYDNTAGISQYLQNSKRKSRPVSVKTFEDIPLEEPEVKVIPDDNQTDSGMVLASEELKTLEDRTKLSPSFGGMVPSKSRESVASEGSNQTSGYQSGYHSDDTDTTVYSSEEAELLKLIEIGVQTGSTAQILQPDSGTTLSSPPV
UniProt Q16665: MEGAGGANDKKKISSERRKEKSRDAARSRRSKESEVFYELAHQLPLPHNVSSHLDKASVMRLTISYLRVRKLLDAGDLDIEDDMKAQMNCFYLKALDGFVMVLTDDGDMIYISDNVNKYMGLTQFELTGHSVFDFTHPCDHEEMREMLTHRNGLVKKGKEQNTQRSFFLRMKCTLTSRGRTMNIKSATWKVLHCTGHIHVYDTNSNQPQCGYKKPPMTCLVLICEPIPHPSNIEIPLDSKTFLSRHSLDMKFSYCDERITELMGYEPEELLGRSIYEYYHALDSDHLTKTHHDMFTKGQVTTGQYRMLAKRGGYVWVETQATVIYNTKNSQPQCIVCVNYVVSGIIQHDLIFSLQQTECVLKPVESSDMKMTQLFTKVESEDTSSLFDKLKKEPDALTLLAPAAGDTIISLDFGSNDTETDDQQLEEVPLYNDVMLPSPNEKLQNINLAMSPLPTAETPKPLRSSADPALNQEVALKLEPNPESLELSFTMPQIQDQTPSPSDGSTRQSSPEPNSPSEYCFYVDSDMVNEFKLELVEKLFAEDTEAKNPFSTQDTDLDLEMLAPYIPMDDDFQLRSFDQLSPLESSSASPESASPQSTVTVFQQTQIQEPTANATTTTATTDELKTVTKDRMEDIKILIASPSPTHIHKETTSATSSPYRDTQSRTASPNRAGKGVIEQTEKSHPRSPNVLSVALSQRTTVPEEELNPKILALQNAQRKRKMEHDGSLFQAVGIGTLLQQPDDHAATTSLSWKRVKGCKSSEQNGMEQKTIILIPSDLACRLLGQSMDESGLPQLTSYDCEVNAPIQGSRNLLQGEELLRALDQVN

binding: binds
Substance: HIF-1a (from UniProt Q16665 1-826)
